These are yes or no findings as the source states them, for the method shown. Some entries that bind do so weakly or less than the wild type.
Legend:
[1] = target: Cyno LILRB5 (Macaca fascicularis); assay: FACS on cells expressing cyno LILRB5, labeled anti-mouse Fc secondary antibody
LILRB1 (human) = LILRB1 (human) (UniProt Q8NHL6); assay: FACS on cells expressing human LILRB1, labeled anti-mouse Fc secondary antibody

Protein sequences, listed by entry. Tags and fused reporters are not part of them. Residues count along the entry.
UniProt Q8NHL6, residues 24-650: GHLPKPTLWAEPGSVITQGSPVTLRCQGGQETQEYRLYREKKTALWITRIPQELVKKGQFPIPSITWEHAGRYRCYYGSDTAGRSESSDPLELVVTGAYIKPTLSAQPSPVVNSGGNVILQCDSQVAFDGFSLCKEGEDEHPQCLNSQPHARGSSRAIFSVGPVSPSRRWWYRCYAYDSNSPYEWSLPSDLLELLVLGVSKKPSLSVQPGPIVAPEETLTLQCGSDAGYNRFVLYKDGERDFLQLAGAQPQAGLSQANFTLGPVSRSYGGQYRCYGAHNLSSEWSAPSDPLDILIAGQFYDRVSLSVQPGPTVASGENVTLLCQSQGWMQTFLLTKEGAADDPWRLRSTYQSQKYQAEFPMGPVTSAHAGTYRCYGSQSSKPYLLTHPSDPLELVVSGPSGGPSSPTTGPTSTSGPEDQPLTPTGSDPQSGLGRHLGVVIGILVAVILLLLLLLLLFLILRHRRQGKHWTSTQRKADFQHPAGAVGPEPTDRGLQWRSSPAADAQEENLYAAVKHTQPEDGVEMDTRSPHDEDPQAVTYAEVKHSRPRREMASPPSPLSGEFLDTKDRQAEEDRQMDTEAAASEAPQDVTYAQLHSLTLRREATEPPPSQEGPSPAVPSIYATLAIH

B1: anti-ILT3 antibody 16C5 (antibody, V domains shown)
VH: EVQLQQSGPELVKPGASVKISCKASGYTFTDYNMDWVKQSHGKSLEWIGYIYPSNGGTGYNQKFKSKATLTVDKSSNTAYMELHSLTSEDSAVYYCARVPYYDYLYYYAMDYWGQGTSVTVSS
VL: QIVLSQSPAILSASPGEKVTMACRASSSVSFMHWYQQKPGSSPQPWIYATSNLASGVPARFSGSGSGTSYSLTISRVEAEDAATYYCQQWSTNPYMYTFGGGTKLEIK
B1 was tested. Which binding [1] did it give?
Its binding is “binds”.

And the binding (LILRB1 (human))?
The binding was “no binding (tested: log [Ab] about -7.2 M (about 6e-8 M))”.

B2: anti-ILT3 antibody 48A6 (antibody, V domains shown)
VH: EVQLVESGGDLMKPGGSLKLSCAASGFTFSSYGMSWVRQTPDKRLEWVATISSGGTYTFYPDSVKGRFTISRDNAKNTLYLQMSSLKSEDTAMYYCARRGWLLHYYAMDYWGQGTSVTVSS
VL: NIVLTQSPASLAVSLGQRATISCRPSESVDSFGNSFMHWFQQKPGQPPKLLIYLSSKLESGVPARFSGSGSRTDFTLTIDPVEADDAATYYCQQHNEDPFTFGSGTKLEIK
For B2, which binding (LILRB1 (human)) is on record?
Its binding is “no binding (tested: log [Ab] about -7.2 M (about 6e-8 M))”.

B3: anti-ILT3 antibody 5A7 (antibody, V domains shown)
VH: EVKLVESGGGLVKPGGSLKLSCAASGFTFSSYGMSWVRQTPEKRLEWVATISGGGSYTNYPDSVKGRLTISRDNAKKNLYLEMSSLRSEDTALYYCARREWRMTLYAMDYWGQGTSVTVSS
VL: NIVLTQSPASLAVSLGQRATISCRASESVDSYGNSFMHWYQQKPGQAPKLLIYLTSNLESGVPARFSGSGSRTDFTLTIDPVEADDAATYYCQQNNEDPFTFGSGTKLEIK
How did the binding (LILRB1 (human)) turn out when B3 was run?
The binding was “no binding (tested: log [Ab] about -7.2 M (about 6e-8 M))”.

B4: anti-ILT3 antibody 53F10 (antibody, V domains shown)
VH: EVQVVESGGGLVKPGGSLKLSCAASGFTFSDYGMHWVRQAPEKGLEWVAYISTGIITVYYADTVKGRFTMSRDNAKNTLFLQMTSLRSEDTAIYYCARADGRGAMDYWGQGTSVIVSS
VL: DIQMTQTTSSLSASLGDRVTISCRASQDISNFLNWYQQKPDGTVTLLIYYTSRLHSGVPSRFSGSGSGTDYSLTISNLEQEDFATYFCQQGNTLPWTFGGGTKLEIK
For B4, which binding (LILRB1 (human)) is on record?
The binding was “no binding (tested: log [Ab] about -7.2 M (about 6e-8 M))”.
